Reference: PubChem BioAssay AID493014 (National Center for Advancing Translational Sciences (NCATS), 2011)
The other results are listed elsewhere or left out. These are further read-outs of the screen, such as a control signal, another cell line or another target. No call is given for them. Most of these compounds were active or inconclusive in the main read-out, so they are no random draw. The note in brackets gives the kind of curve behind each potency; many fits are weak.

Assay: qHTS Assay to Find Inhibitors of Chronic Active B-Cell Receptor Signaling
Settings: ABC-DLBCL IkBa-CBG/CBR reporter, luminescence ratio (green luciferase fused to IkBa over red control in TMD8 lymphoma cells), 4 h
How it was run: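 TMD8 ABC-DLBCL cells carrying doxycycline-inducible green luciferase fused to IkappaBalpha plus unfused red luciferase were exposed to compounds (up to 46 uM) for 4 hrs at 37C. Activity came from the overlap-corrected green/red luminescence ratio.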

[1] = measured here: CBR red luminescence, cell number

Q: Which AC50 [1] does the source give for `O=C(CN1C(=O)CSC1=O)Nc1ccc(N2CCOCC2)cc1` here?
A: 16.4 µM [falling, single point]

Q: With `C/C(=N\NC(=O)c1ccc(F)cc1)c1ccc(N2CCOCC2)cc1` as the compound, how does the AC50 [1] read?
A: 10 µM [falling, partial curve]

Q: Which AC50 [1] does the source give for `Cc1cccc(-n2ncc3c(NCCCO)ncnc32)c1` here?
A: 29.1 µM [falling, single point]

Q: With `CCCCOc1ccc(C(=O)NCC(=O)NCCCn2nc(C)cc2C)cc1` as the compound, how does the AC50 [1] read?
A: 3.66 µM [rising, single point]

Q: For `Cc1ccc(C(=O)Nc2ccc(C(=O)N/N=C/c3c[nH]c4ccccc34)cc2)cc1`, which AC50 [1] is on record?
A: 23.1 µM [falling, single point]

Q: For `CCOc1cc(CNc2ccc(N3CCN(C(C)=O)CC3)cc2)cc(Br)c1OC`, which AC50 [1] is on record?
A: 32.6 µM [falling, partial curve, poor fit]

Q: With `Cn1c(CSc2nnc(SCc3ccccc3)s2)nc2ccccc21` as the compound, how does the AC50 [1] read?
A: 35.5 µM [falling, single point]

Q: With `CC(C)c1ccc(N(C(=O)c2snc(C(N)=O)c2N)C(C(=O)NC2CCCC2)c2ccncc2)cc1` (centres undefined) as the compound, how does the AC50 [1] read?
A: 15.8 µM [falling, single point]

Q: Which AC50 [1] does the source give for `c1ccc(C2=Nn3c(Cn4nnc5ccccc54)nnc3SC2)cc1` here?
A: 11.2 µM [falling, partial curve, poor fit]

Q: Which AC50 [1] does the source give for `COc1ccc(-c2c3c(=O)n(C)c(=O)n(C)c3cn2Cc2cccnc2)cc1` here?
A: 4.47 µM [rising, full curve, poor fit]

Q: Which AC50 [1] does the source give for `O=C1c2cccnc2C(Nc2cccc(F)c2)N1Cc1ccco1` (centres undefined) here?
A: 35.5 µM [falling, single point]

Q: For `COc1cc(OC)cc(C(=O)c2c(C)c(C#N)c3ccccn23)c1`, which AC50 [1] is on record?
A: 20 µM [rising, partial curve, poor fit]

Q: With `O=C(O)CC1(CC(=O)NCc2ccc(F)cc2)CCCCC1` as the compound, how does the AC50 [1] read?
A: 35.5 µM [rising, partial curve, poor fit]

Q: With `COc1ccc(OC)c(S(=O)(=O)NCC2CCCO2)c1` (centres undefined) as the compound, how does the AC50 [1] read?
A: 5.62 µM [rising, single point]

Q: For `O=C(N/N=C\c1ccc([N+](=O)[O-])s1)c1cncc(Br)c1`, which AC50 [1] is on record?
A: 5.8 µM [falling, partial curve]

Q: Which AC50 [1] does the source give for `CC(C)(C)NC(=O)NC(=O)COC(=O)c1cccc(NS(=O)(=O)c2ccc(F)c(F)c2)c1` here?
A: 23.1 µM [falling, single point]

Q: For `COc1ccc(S(=O)(=O)Nc2ccc3c(c2)C(=O)N([C@H](C)CO)C[C@H](C)[C@@H](CN(C)S(=O)(=O)c2ccc(F)cc2)O3)cc1`, which AC50 [1] is on record?
A: 9.2 µM [rising, partial curve, poor fit]

Q: With `NS(=O)(=O)c1cccc(NC(=O)c2ccc(S(=O)(=O)N3CCCCCC3)cc2)c1` as the compound, how does the AC50 [1] read?
A: 2.91 µM [rising, partial curve]

Q: Which AC50 [1] does the source give for `COc1ccc(CCNC(=O)CNC(=O)c2ccccc2Br)cc1OC` here?
A: 0.1 µM [rising, full curve, poor fit]

Q: For `O=C(COc1ccc([N+](=O)[O-])cc1)Nc1ccc2c(c1)CCC2`, which AC50 [1] is on record?
A: 20.6 µM [rising, partial curve, poor fit]

Q: Which AC50 [1] does the source give for `CCOc1ccc(NS(=O)(=O)c2ccc(NC(=S)NC(=O)C(C)C)cc2)cc1` here?
A: 0.82 µM [rising, partial curve, poor fit]

Q: With `COC(=O)c1cc(-c2ccc(S(=O)(=O)N3CCCC3)cc2)c(C(F)(F)F)s1` as the compound, how does the AC50 [1] read?
A: 7.94 µM [falling, partial curve]

Q: With `Oc1c(CN2CCc3ccccc3C2)cc(Cl)c2cccnc12` as the compound, how does the AC50 [1] read?
A: 29.1 µM [falling, single point]

Q: Which AC50 [1] does the source give for `Cc1ccc(P(=O)(CSC(=N)N)c2ccc(C)cc2)cc1` here?
A: 12.6 µM [falling, partial curve]

Q: With `Cn1c(CN2CCCC2)nc2cc(NC(=O)C3CCCCC3)ccc21` as the compound, how does the AC50 [1] read?
A: 12.6 µM [falling, partial curve, poor fit]

Q: For `Cc1ccc(NC(=O)c2ccc(NC(=O)c3ccccc3)cc2)cc1C`, which AC50 [1] is on record?
A: 6.31 µM [falling, partial curve]

Q: With `COc1ccc(C2C3=C(CCCC3=O)Nc3nc(SCc4ccccc4)nn32)cc1OC` (centres undefined) as the compound, how does the AC50 [1] read?
A: 0.651 µM [falling, full curve, poor fit]

Q: Which AC50 [1] does the source give for `O=C(COc1ccccc1O)Nc1ccccc1Cl` here?
A: 1.26 µM [falling, full curve]

Q: Which AC50 [1] does the source give for `Cc1c(NC(=O)c2cc3ccccc3oc2=O)c(=O)n(-c2ccccc2)n1C` here?
A: 2.59 µM [rising, single point]

Q: With `COc1ccc(N(C)S(=O)(=O)c2ccc3c(c2)oc(=O)n3C)cc1` as the compound, how does the AC50 [1] read?
A: 4.11 µM [falling, single point]

Q: Which AC50 [1] does the source give for `O=C(COc1ccc(Cl)cc1)Nc1ccc2oc(-c3ccncc3)nc2c1` here?
A: 3.26 µM [falling, single point]

Q: With `O=c1[nH]c(/C=C\c2ccc(O)c(O)c2)nc(O)c1[N+](=O)[O-]` as the compound, how does the AC50 [1] read?
A: 7.94 µM [falling, partial curve]

Q: For `COc1ccc(-c2onc(C)c2-c2cnn(-c3ccccc3)c2)c(O)c1C`, which AC50 [1] is on record?
A: 11.2 µM [falling, partial curve, poor fit]

Q: And the AC50 (measured here: IkBa-CBG green luminescence)?
A: 31.6 µM [rising, partial curve, poor fit]

Q: Which AC50 [1] does the source give for `O=C(c1cc[n+]([O-])cc1)N1CCCC(N2CCN(c3cccc(C(F)(F)F)c3)CC2)C1` (centres undefined) here?
A: 0.891 µM [falling, full curve, poor fit]

Q: With `COc1ccc(C(=O)OCC(=O)c2c[nH]c3ccccc23)cc1OC` as the compound, how does the AC50 [1] read?
A: 6.51 µM [falling, single point]

Q: For `Cc1ccc(C)c(CN2CCC(CNC(=O)Nc3ccc(F)c(Cl)c3)CC2)c1`, which AC50 [1] is on record?
A: 11.2 µM [falling, partial curve, poor fit]

Q: Which AC50 [1] does the source give for `CC(=O)Nc1ccc2nc(NC(=O)c3cccs3)sc2c1` here?
A: 1 µM [falling, full curve, poor fit]

Q: For `COc1ccc(-c2[nH]n(-c3ccc([N+](=O)[O-])cc3)c(=O)c2C=NCc2ccccc2)cc1`, which AC50 [1] is on record?
A: 0.366 µM [rising, full curve]

Q: For `O=C(NCC1CCCO1)C1CCN(CC2CCCCC2)CC1` (centres undefined), which AC50 [1] is on record?
A: 4.11 µM [rising, full curve]

Q: For `COC(=O)[C@H](C)N(Cc1ccc(Cl)c(Cl)c1)S(=O)(=O)CCN1CCCC1`, which AC50 [1] is on record?
A: 16.4 µM [falling, partial curve]

Q: For `CCc1ccc(Nc2cc(=O)n(C3CCCCC3)c(=O)[nH]2)cc1`, which AC50 [1] is on record?
A: 4.11 µM [rising, full curve]

Q: With `Cc1ccc(NC(=O)c2ccccc2Cl)c(Cl)c1` as the compound, how does the AC50 [1] read?
A: 20.6 µM [rising, partial curve, poor fit]

Q: With `Cc1ccc(NC(=O)c2cnc(N3CCN(c4ccccn4)CC3)c3ccccc23)c(Br)c1` as the compound, how does the AC50 [1] read?
A: 12.6 µM [falling, partial curve]

Q: Which AC50 [1] does the source give for `CCOC(=O)c1c(C)n(CC(O)CN(CC)CC)c2cc(Br)c(OC)cc12` (centres undefined) here?
A: 35.5 µM [falling, single point]

Q: For `O=C(CSc1ccc(-c2cccs2)nn1)c1cccs1`, which AC50 [1] is on record?
A: 15.8 µM [falling, single point]

Q: With `O=C(OCC(=O)N1CCc2ccccc21)c1ccccc1` as the compound, how does the AC50 [1] read?
A: 14.1 µM [falling, single point]

Q: Which AC50 [1] does the source give for `O=C(Oc1ccc(OC(=O)N2CCOCC2)cc1)c1ccccc1` here?
A: 20.6 µM [rising, single point]

Q: For `CSCC[C@H](NC(=O)COc1ccc(Cl)cc1Cl)c1nc2ccccc2[nH]1`, which AC50 [1] is on record?
A: 29.1 µM [falling, single point]

Q: For `COCCCn1c(-c2cccs2)nc2nc3ccccc3nc21`, which AC50 [1] is on record?
A: 3.55 µM [rising, single point]

Q: For `CN(C)c1nc(N)nc(N(c2ccccc2)c2ccccc2)n1`, which AC50 [1] is on record?
A: 5.8 µM [rising, full curve, poor fit]

Q: For `CC[C@]12c3[nH]c4ccccc4c3CCN1C(=O)C(CC(=O)NCc1cccc(C(F)(F)F)c1)C[C@@H]2C(=O)N1CCN(C(=O)c2ccco2)CC1` (some centres undefined), which AC50 [1] is on record?
A: 16.4 µM [falling, partial curve]

Q: For `c1ccc(CCCc2nc(-c3cccnc3)no2)cc1`, which AC50 [1] is on record?
A: 0.631 µM [rising, full curve, poor fit]

Q: For `NC(=O)C1CCN(C2CC(=O)N(Cc3ccc(N4CCCC4=O)cc3)C2=O)CC1` (centres undefined), which AC50 [1] is on record?
A: 2.31 µM [rising, partial curve, poor fit]

Q: For `CCOc1ccc(-c2cc(C(=O)N/N=C(\C)c3cccnc3)c3ccccc3n2)c(OCC)c1`, which AC50 [1] is on record?
A: 0.0891 µM [rising, full curve, poor fit]

Q: Which AC50 [1] does the source give for `C=CCc1c(C)nc2nc(SCC(=O)Nc3ccc(C)c(C)c3)nn2c1C` here?
A: 35.5 µM [falling, single point]

Q: For `O=C(Nc1ncc2c(n1)-c1ccccc1CC2)c1ccc(Cl)cc1`, which AC50 [1] is on record?
A: 3.16 µM [falling, partial curve]

Q: With `Cc1cccc(C)c1NC(=O)CCCN1CC(C)OC(C)C1` (centres undefined) as the compound, how does the AC50 [1] read?
A: 29.1 µM [rising, single point]

Q: Which AC50 [1] does the source give for `OCCCNc1nc(-c2ccc(Cl)cc2)nnc1-c1ccccc1` here?
A: 8.2 µM [falling, partial curve]

Q: Which AC50 [1] does the source give for `COc1ccc(CCN2C(=O)c3[nH]nc(-c4ccccc4O)c3C2c2cccc(Cl)c2)cc1` (centres undefined) here?
A: 25.1 µM [falling, single point]

Q: Which AC50 [1] does the source give for `CC(C)(C)n1nnnc1CN1CCN(C(c2ccccc2)c2ccccc2)CC1` here?
A: 14.6 µM [falling, partial curve]

Q: For `Cc1ccc2[nH]c(C(=O)N3CCCC(Nc4ccc(F)cc4)C3)cc2c1` (centres undefined), which AC50 [1] is on record?
A: 35.5 µM [falling, single point]

Q: For `COC1=C(c2ccccc2)C(=O)c2ccccc2C1=O`, which AC50 [1] is on record?
A: 23.1 µM [falling, single point]

Q: Which AC50 [1] does the source give for `Cc1ccc(S(=O)(=O)Nc2ccncc2)c(C)c1N(C)S(=O)(=O)c1ccc(F)cc1` here?
A: 1.84 µM [rising, partial curve, poor fit]
